# PubChem BioAssay AID1671190 (National Center for Advancing Translational Sciences (NCATS), 2021)
# Sequences of proteins named here, by UniProt entry; tags and fusion partners are left off. A change or cut given only in a name is not applied to a line headed by its entry.
# UniProt P18054: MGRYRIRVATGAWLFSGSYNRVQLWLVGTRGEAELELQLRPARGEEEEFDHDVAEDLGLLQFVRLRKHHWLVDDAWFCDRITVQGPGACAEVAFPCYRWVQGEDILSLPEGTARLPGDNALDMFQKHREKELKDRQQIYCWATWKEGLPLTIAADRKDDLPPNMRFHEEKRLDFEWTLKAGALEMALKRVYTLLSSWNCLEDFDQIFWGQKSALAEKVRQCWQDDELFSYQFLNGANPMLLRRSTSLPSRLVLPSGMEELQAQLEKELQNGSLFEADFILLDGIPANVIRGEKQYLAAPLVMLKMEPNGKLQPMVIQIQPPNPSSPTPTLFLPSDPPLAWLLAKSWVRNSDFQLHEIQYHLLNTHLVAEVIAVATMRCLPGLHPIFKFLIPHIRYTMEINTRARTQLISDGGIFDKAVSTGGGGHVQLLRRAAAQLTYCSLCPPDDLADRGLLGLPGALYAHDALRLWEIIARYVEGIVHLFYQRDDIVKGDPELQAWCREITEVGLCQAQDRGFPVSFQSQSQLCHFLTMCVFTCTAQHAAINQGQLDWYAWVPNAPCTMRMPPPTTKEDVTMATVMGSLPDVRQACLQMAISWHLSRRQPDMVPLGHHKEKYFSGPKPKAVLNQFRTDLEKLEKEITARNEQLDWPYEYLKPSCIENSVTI
# In all, about 580,000 compounds went through this assay and about 6,100 (1.1%) were called active. The inconclusive results got no clear call from the source; some entries with a clear call stand among them for comparison. Calls follow the shape of the dose curve; as a rule, active = well fitted inhibition curve with a large enough effect; inconclusive = small, poorly fitted or top-dose-only effect, or another doubt; inactive = no such curve, though single readings can be large or run the other way. A potency beside an inconclusive call is a rough fit, not a confirmed value.
# Molecular target: Polyunsaturated fatty acid lipoxygenase ALOX12 (Homo sapiens) (UniProt P18054)
# Experiment: Primary qHTS assay for inhibitors of human arachidonate 12S-lipoxygenase (ALOX12): Round 2
# Settings: purified 12hLO, xylenol orange hydroperoxide absorbance; activity change, negative = inhibition: at 108 µM (top of the series) unless noted
# Summary of the method: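 Hydroperoxide product was detected by ferrous iron/xylenol orange as the 573 to 405 nm absorbance ratio. Arachidonic acid at 40 uM (final) was turned over for 30 min at room temperature by 150 nM human 12hLO, pH 7.0 Hepes buffer, after 15 min compound preincubation.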
# % is scaled to controls: 0 for no effect and ±100 for the full control effect; potency is read from the fitted curve at half-maximal effect.
Compound,Potency,"activity change, negative = inhibition"
CCN1C(=O)[C@H]2[C@@H](c3ccc(-c4ccc(OC)cc4)c(OC)c3)N[C@@](Cc3ccccc3)(C(=O)OC)[C@H]2C1=O,"inconclusive: 70.8 µM [inhibitor, partial curve, poor fit]",
Cc1ccc(COc2ccc3ccccc3c2CNCC(O)c2ccccc2)cc1 (configuration not stated),"inconclusive: 112 µM [inhibitor, single point]",
CC[C@@H]1CCCCc2ccccc2[C@@H](C(=O)C[C@@H](O)CC(C)=O)OC1=O,"inconclusive: 3.16 µM [inhibitor, full curve, poor fit]",
CC(C)(C)NC(=O)Cn1c(=O)n(CC(=O)NC(C)(C)C)c2ccccc21,"inconclusive: 100 µM [inhibitor, partial curve, poor fit]",
CCc1ccc(NC(=O)CC2C(=O)N(c3cccc(OC)c3)C(=O)N2Cc2ccc(F)cc2)cc1 (configuration not stated),,inconclusive: -42.6% [inhibitor]
Nc1ccc(OC2CCCC2)c(Cl)c1,"inconclusive: 8.91 µM [inhibitor, full curve, poor fit]",
O=C(Nc1cccc(S(=O)(=O)N2CCCCC2)c1)c1cc(=O)[nH]c2ccccc12,inactive,
COc1ccc(-n2nc(C(=O)NCC(=O)N3CCCCC3)c3ccccc3c2=O)c(OC)c1,"inconclusive: 112 µM [inhibitor, partial curve, poor fit]",
COc1ccccc1C(=O)Nc1ccc2oc(-c3ccccc3F)nc2c1,"inconclusive: 100 µM [inhibitor, partial curve, poor fit]",
CCCn1c(=O)[nH]c(=O)c2c1nc(-c1ccc(OC)c(O)c1)n2CCN1CCOCC1,"inconclusive: 3.98 µM [inhibitor, full curve, poor fit]",
O=C(Cc1csc(-c2ccco2)n1)Nc1ccnn1Cc1c(Cl)cccc1Cl,"inconclusive: 79.4 µM [inhibitor, single point]",
Cc1nnc(NC(=O)CSc2nc3ccccc3o2)s1,inactive,
COc1ccc(S(=O)(=O)Nc2cc3c4c(c2)CC(=O)N4CCC3)cc1OC,"inconclusive: 100 µM [inhibitor, single point]",
CCOC(=O)C1(C)C=C(Nc2ccc(NC(C)=O)cc2)C(=O)N1c1ccc(NC(C)=O)cc1 (configuration not stated),"inconclusive: 39.8 µM [inhibitor, partial curve, poor fit]",
CCc1ccc(NC(=O)CC2C(=O)N(c3cccc(C)c3)C(=O)N2Cc2ccc(F)cc2)cc1 (configuration not stated),,inconclusive: -36% [inhibitor]

# Pulled one by one from above (two):
Compound,Potency,"activity change, negative = inhibition"
CCOC(=O)C1(C)C=C(Nc2ccc(NC(C)=O)cc2)C(=O)N1c1ccc(NC(C)=O)cc1 (configuration not stated),"inconclusive: 39.8 µM [inhibitor, partial curve, poor fit]",
Cc1ccc(COc2ccc3ccccc3c2CNCC(O)c2ccccc2)cc1 (configuration not stated),"inconclusive: 112 µM [inhibitor, single point]",
